Experimental data reported in the supplement of paper PMC8551327.
Where a name gives a salt, the structure may show the parent alone. The list shows a part of the results. No stated cut-off is given here; in the data, active = 1.25 or more and inactive = the rest. Repeats are few or missing, and single values can be far off.

System: Kcc2-LUC knock-in mouse primary cortical neurons (Kcc2 promoter reporter)
Test: Kcc2 promoter-driven luciferase activity relative to vehicle control (fold of vehicle (ratio)); higher = stronger Kcc2 promoter activation (Kcc2 expression enhancer)
Conditions: 100 nM; 48 h

CN(C)C(=S)/N=c1\ss/c(=N\C(=S)N(C)C)n1-c1ccc2c(c1)OCO2
Kcc2 promoter-driven luciferase activity: inactive: 1.03

COc1ccc2[nH]c3c(C)c4ccncc4c(C)c3c2c1 [9-methoxyellipticine]
Kcc2 promoter-driven luciferase activity: inactive: 1.13

CCCCCCCCCCCCCCCCOCC(O)CO (configuration not stated) [Chimyl Alcohol]
Kcc2 promoter-driven luciferase activity: inactive: 0.92

N#Cc1ccccc1NC(=O)C(=O)C(C(=O)c1ccccc1F)C1OC(=O)c2ccccc21 (configuration not stated)
Kcc2 promoter-driven luciferase activity: inactive: 0.82

CC1(C)[C@@H]2CC[C@]1(C)[C@@H](O)C2 [Isoborneol]
Kcc2 promoter-driven luciferase activity: active: 1.47

CN(Cc1cnc2nc(N)nc(N)c2n1)c1ccc(C(=O)NC(CCC(=O)O)C(=O)O)c2ccccc12 (configuration not stated)
Kcc2 promoter-driven luciferase activity: inactive: 0.82

CCCC[S+]([O-])CC(CO)NC(=O)C=Cc1c(C)[nH]c(=O)[nH]c1=O (stereo in doubt)
Kcc2 promoter-driven luciferase activity: inactive: 0.85

COc1cc2c(c(OC)c1OC)-c1ccc(OC)c(=O)cc1[C@@H](NC(=O)c1ccccc1)CC2 [N-Benzoyl-deacetylcolchicine]
Kcc2 promoter-driven luciferase activity: inactive: 0.37

Cn1cnc([N+](=O)[O-])c1Sc1nnc(-c2cccnc2)n1C
Kcc2 promoter-driven luciferase activity: inactive: 0.9

CCN(CC)CCNC(=O)c1nn(-c2ccc(Cl)cc2)c2c1CCc1cc(OC)ccc1-2
Kcc2 promoter-driven luciferase activity: inactive: 1.04

CN1C(Cl)=NS(=O)(=O)c2ccccc21 [4H-1,2,4-Benzothiadiazine, 3-chloro-4-methyl-, 1,1-dioxide]
Kcc2 promoter-driven luciferase activity: inactive: 1.17

Oc1ccc(-c2nc(-c3cccnc3)c(-c3ccc(F)cc3)[nH]2)cc1 [4-[5-(4-Flourophenyl)-4-(3-pyridyl)-1H-imidazol-2-yl]phenol]
Kcc2 promoter-driven luciferase activity: inactive: 1.04

COc1ccc2oc(-c3ccncc3)cc(=O)c2c1 [6-methoxy-2-pyridin-4-ylchromen-4-one]
Kcc2 promoter-driven luciferase activity: inactive: 0.61

CCC12C[N+]3([O-])CCc4c([nH]c5ccccc45)C(C(=O)OC)(c4cc5c(cc4OC)N(C)C4C(O)(C(=O)OC)C(OC(C)=O)C6(CC)C=CCN7CCC54C76)CC(C3)C1O2 (configuration not stated) [Leurosine N-oxide]
Kcc2 promoter-driven luciferase activity: inactive: 0.01

O=c1ccc2ccc(CBr)cc2o1 [7-(Bromomethyl)-2h-chromen-2-one]
Kcc2 promoter-driven luciferase activity: inactive: 1.16

Cn1cc(NC(=O)c2cc(NC(=O)c3cc(NC=O)cn3C)cn2C)cc1C(=O)NCCC(=N)N [Stallimycin]
Kcc2 promoter-driven luciferase activity: inactive: 0.995

COc1ccc(S(=O)(=O)NN=CC(=O)O)cc1 [Acetic acid, [[(4-methoxyphenyl)sulfonyl]hydrazono]-]
Kcc2 promoter-driven luciferase activity: inactive: 0.61

COc1ccc(-c2csc(=[N+]3CCCCC3)s2)cc1
Kcc2 promoter-driven luciferase activity: inactive: 1.1

COc1cc(OC)c(OC)cc1/C=C/c1ccnc2ccccc12 [4-[(E)-2-(2,4,5-Trimethoxyphenyl)ethenyl]quinoline]
Kcc2 promoter-driven luciferase activity: inactive: 0.94

COc1ccc2c(c1OC)C(=O)O[C@@H]2[C@H]1c2c(cc3c(c2OC)OCO3)CCN1C [Noscapine]
Kcc2 promoter-driven luciferase activity: inactive: 1.05

CC(=O)SC(SC(C)=O)SC(C)=O [Tris(Acetylthio)Methane]
Kcc2 promoter-driven luciferase activity: active: 6.26

CCOC(=O)C1=C(O)CSC1=Nc1ccc(N=C2SCC(O)=C2C(=O)OCC)cc1
Kcc2 promoter-driven luciferase activity: inactive: 0.77

COc1ccc(Cc2nc3ccccc3s2)cc1OC [2-[(3,4-dimethoxyphenyl)methyl]-1,3-benzothiazole]
Kcc2 promoter-driven luciferase activity: inactive: 0.45

Cc1c2ccnc(C(N)=O)c2c(C)c2c1[nH]c1ccccc12
Kcc2 promoter-driven luciferase activity: inactive: 0.98

C=C1C[C@]23C[C@@]1(O)CC[C@H]2[C@@]12C=C[C@H](O)[C@@](C)(C(=O)O1)[C@H]2[C@@H]3C(=O)O [Gibberellic Acid]
Kcc2 promoter-driven luciferase activity: inactive: 1.02

BrC(/C=N/Nc1nnc(-c2ccccc2)c(-c2ccccc2)n1)C(Br)c1ccccc1 (configuration not stated)
Kcc2 promoter-driven luciferase activity: inactive: 0.79

O=[N+]([O-])c1cc(-c2nc(=S)[nH][nH]2)ccc1O
Kcc2 promoter-driven luciferase activity: active: 6.14

N[C@@H](Cc1ccc2oc3cc(=O)c4ccccc4c-3nc2c1)C(=O)O [1,2-Benzo-8-(L-alanyl)-3-phenoxazone nitrate salt]
Kcc2 promoter-driven luciferase activity: inactive: 0.79

CC(=O)c1sc2c(c1OC(=O)c1ccc(Cl)cc1Cl)c(=O)n(-c1ccccc1)c(=S)n2-c1ccccc1
Kcc2 promoter-driven luciferase activity: inactive: 0.78

COC(=O)C[C@](O)(CCCC(C)(C)O)C(=O)O[C@@H]1C(OC)=C[C@]23CCCN2CCc2cc4c(cc2[C@H]13)OCO4 [Omacetaxine]
Kcc2 promoter-driven luciferase activity: inactive: 1.06

O=S(=O)(c1cccc(N=C=S)c1)c1cccc(N=C=S)c1 [Bis(3-Isothiocyanatophenyl)sulphone]
Kcc2 promoter-driven luciferase activity: inactive: 1.14

OC[C@H]1O[C@@H](n2cnc3cncnc32)[C@H](O)[C@@H]1O [Purine riboside]
Kcc2 promoter-driven luciferase activity: inactive: 0.96

O=S1(=O)OCCOS(=O)(=O)C1Cc1ccccc1 [3-Benzyl-1,5,2,4-dioxadithiepane 2,2,4,4-tetraoxide]
Kcc2 promoter-driven luciferase activity: inactive: 0.77

CN(C)C[C@H]1CC[C@@H](CN(C)C)C1=O
Kcc2 promoter-driven luciferase activity: inactive: 0.49

CC(C)c1ccc2c(c1)CC[C@H]1[C@](C)(C(=O)O)CCC[C@]21C [Dehydroabietic Acid]
Kcc2 promoter-driven luciferase activity: inactive: 1

O=C1C=CC2=C3c4cc(O)c(O)cc4CC3(O)COC2=C1O (configuration not stated) [Hematein]
Kcc2 promoter-driven luciferase activity: inactive: 0.983

COc1cc2c3c(n(C)c(=O)c2cc1OC)-c1cc2c(cc1C3=O)OCO2
Kcc2 promoter-driven luciferase activity: inactive: 1.11

Cc1nc(C(N)=S)sc1C(=O)CC(=O)C(=O)Nc1c(C(C)C)cccc1C(C)C
Kcc2 promoter-driven luciferase activity: inactive: 1.11

CCOC(=O)/C=C/c1c(C)[nH]c(=O)[nH]c1=O [Ethyl 3-(6-methyl-2,4-dioxo-1H-pyrimidin-5-yl)prop-2-enoate]
Kcc2 promoter-driven luciferase activity: inactive: 0.85

CCCCCCCCCCCCCCCC(=O)O[C@@H]1[C@@H](C)[C@@]2(O)[C@@H](C=C(CO)C[C@]3(O)C(=O)C(C)=C[C@@H]23)[C@H]2C1(OC(C)=O)[C@]2(C)CO (some centres not stated) [Croton Factor F1]
Kcc2 promoter-driven luciferase activity: inactive: 1

C=C1C(=O)C2=CC1CCC(=O)C1(C)CCC(OC(C)=O)C(C)(C)C1CC2O (configuration not stated) [Shikoccin]
Kcc2 promoter-driven luciferase activity: inactive: 1.16

CC(C)(C)c1ccc(O)c(CN(Cc2cc(C(C)(C)C)ccc2O)C2CCCCC2)c1
Kcc2 promoter-driven luciferase activity: inactive: 0.46

CC/C(=C(\c1ccccc1)c1ccc(OCCN(C)C)cc1)c1ccccc1 [Tamoxifen citrate]
Kcc2 promoter-driven luciferase activity: inactive: 0.99

COC(=O)[C@@]12OC[C@]34[C@H]([C@@H](O)[C@@H]1O)[C@@]1(C)CC(=O)C(O)=C(C)[C@@H]1C[C@H]3OC(=O)[C@H](OC(=O)C=C(C)C)[C@@H]24
Kcc2 promoter-driven luciferase activity: active: 1.31

CCN(CC)CCCC(C)Nc1c2ccc(Cl)cc2nc2ccc(OC)cc12 (configuration not stated) [Quinacrine hydrochloride]
Kcc2 promoter-driven luciferase activity: inactive: 0.33

c1ccc(-c2cccc(-c3ccccn3)n2)nc1 [2,2':6',2''-Terpyridine]
Kcc2 promoter-driven luciferase activity: inactive: 0.94

O=C(CCCN1CCC(O)(c2ccc(Cl)cc2)CC1)c1ccc(F)cc1 [Haloperidol]
Kcc2 promoter-driven luciferase activity: inactive: 0.56
